Assay in all cases: SPR; both purified
The target of assay [1] is CTA2/CTB5 complex (UniProt P01555).
For assay [2], the target named is cholera toxin B subunit pentamer (CTB5) (UniProt P01556).
Assay [3] addresses reconstituted cholera toxin holotoxin (CTA1 re-associated with CTA2/CTB5) (UniProt P01555).

Protein sequences, listed by entry. Tags and fused reporters are not part of them. Residues count along the entry.
cholera toxin A1 subunit (CTA1), reduced, free (P01555, residues 19-212): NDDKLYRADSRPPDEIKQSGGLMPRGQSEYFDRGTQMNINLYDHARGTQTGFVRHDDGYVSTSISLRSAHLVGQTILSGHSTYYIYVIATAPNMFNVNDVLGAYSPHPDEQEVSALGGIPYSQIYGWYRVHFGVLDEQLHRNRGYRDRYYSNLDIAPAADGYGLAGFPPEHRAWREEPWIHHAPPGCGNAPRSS
cholera toxin A2 subunit (CTA2) (P01555, residues 213-258): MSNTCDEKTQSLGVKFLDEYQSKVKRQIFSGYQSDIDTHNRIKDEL
UniProt P01556, residues 22-124: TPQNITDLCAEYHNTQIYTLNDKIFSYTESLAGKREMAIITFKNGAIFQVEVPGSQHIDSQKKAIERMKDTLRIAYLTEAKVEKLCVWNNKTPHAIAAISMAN
UniProt P07237, residues 18-508: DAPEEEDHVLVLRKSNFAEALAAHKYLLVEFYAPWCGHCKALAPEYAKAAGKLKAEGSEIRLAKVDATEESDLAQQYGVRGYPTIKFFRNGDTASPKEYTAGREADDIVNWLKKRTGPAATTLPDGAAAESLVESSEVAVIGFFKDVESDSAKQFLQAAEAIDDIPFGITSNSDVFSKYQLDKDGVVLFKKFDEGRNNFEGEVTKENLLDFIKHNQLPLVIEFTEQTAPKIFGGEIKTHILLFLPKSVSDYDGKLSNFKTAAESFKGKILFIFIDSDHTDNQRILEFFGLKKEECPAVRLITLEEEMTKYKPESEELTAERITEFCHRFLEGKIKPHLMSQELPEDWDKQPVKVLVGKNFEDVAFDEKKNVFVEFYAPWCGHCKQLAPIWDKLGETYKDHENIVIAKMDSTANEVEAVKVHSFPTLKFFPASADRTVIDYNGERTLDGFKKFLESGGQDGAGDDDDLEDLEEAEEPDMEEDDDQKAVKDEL

No constants are given. Whether binding was seen depends on the method and setting. Some entries that bind do so weakly or less than the wild type.

Take “cholera toxin A1 subunit (CTA1), reduced, free (from UniProt P01555 19-212) (enzyme)”: in assay [1], the binding result is “binds”.
For the substance “cholera toxin A2 subunit (CTA2) (from UniProt P01555 213-258) (peptide)”, the binding entry in assay [2] is “binds”.
As to “protein disulfide isomerase (PDI), reduced (from UniProt P07237 18-508) (enzyme)”, the binding entry in assay [3] is reported as “binds”.

The values are drawn from publication PMC4516936 (Toxins, 2015).
